Experimental findings from the supplement of paper PMC10849652 are described below.

Chains of the proteins cited; added tags and fusions are not shown. Lines headed by an entry give the natural chain unless they say otherwise; changes in a name come on top.
UniProt Q8IUH4: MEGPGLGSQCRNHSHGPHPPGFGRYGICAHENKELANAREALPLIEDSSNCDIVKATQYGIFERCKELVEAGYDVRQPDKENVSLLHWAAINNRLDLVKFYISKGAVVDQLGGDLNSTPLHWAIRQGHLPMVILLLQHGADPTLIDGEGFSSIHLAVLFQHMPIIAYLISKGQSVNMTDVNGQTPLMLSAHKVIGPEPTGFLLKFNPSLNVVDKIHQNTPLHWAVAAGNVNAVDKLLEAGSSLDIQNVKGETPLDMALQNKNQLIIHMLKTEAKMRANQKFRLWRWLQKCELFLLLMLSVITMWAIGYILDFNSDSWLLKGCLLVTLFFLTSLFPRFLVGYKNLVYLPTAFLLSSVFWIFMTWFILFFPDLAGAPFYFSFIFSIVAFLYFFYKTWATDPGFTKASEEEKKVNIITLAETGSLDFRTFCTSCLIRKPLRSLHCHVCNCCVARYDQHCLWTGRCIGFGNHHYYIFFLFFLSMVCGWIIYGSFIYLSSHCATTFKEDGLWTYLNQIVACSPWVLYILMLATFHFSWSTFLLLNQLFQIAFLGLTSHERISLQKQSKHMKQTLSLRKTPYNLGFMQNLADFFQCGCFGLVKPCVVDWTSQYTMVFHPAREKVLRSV
UniProt O43543: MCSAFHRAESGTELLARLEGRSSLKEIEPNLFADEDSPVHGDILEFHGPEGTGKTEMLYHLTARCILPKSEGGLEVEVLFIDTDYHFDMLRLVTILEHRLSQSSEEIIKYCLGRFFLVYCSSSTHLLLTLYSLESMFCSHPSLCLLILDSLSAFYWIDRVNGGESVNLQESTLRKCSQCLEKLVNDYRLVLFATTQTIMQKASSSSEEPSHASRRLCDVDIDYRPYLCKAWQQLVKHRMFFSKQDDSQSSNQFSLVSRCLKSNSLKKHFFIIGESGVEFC
UniProt O43829: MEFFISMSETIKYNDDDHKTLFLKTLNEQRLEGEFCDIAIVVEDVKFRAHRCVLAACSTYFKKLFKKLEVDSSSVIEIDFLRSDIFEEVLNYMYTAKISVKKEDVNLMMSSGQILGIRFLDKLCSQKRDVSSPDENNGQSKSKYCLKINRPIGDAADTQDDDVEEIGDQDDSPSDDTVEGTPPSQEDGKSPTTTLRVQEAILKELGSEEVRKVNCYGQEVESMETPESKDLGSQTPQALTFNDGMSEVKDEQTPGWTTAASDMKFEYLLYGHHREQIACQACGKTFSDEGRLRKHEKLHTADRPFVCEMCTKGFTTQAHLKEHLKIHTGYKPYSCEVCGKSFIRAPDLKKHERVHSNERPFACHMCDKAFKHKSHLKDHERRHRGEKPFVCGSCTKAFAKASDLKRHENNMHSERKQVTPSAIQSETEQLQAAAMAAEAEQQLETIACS
UniProt Q9BRR0: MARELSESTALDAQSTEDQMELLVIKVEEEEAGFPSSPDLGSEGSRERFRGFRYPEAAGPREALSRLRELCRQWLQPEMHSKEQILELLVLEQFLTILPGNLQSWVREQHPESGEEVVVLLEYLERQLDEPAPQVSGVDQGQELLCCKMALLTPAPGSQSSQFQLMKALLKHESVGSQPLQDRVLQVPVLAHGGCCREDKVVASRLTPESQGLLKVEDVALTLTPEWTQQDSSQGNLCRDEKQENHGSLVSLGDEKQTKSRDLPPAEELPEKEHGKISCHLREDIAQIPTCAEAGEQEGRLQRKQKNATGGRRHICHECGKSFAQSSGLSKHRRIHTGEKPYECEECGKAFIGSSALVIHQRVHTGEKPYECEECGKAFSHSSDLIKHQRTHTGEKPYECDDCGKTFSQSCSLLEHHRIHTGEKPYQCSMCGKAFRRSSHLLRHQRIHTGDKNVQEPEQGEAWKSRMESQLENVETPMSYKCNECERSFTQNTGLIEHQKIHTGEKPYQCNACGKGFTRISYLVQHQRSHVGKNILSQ
UniProt Q9H1B5: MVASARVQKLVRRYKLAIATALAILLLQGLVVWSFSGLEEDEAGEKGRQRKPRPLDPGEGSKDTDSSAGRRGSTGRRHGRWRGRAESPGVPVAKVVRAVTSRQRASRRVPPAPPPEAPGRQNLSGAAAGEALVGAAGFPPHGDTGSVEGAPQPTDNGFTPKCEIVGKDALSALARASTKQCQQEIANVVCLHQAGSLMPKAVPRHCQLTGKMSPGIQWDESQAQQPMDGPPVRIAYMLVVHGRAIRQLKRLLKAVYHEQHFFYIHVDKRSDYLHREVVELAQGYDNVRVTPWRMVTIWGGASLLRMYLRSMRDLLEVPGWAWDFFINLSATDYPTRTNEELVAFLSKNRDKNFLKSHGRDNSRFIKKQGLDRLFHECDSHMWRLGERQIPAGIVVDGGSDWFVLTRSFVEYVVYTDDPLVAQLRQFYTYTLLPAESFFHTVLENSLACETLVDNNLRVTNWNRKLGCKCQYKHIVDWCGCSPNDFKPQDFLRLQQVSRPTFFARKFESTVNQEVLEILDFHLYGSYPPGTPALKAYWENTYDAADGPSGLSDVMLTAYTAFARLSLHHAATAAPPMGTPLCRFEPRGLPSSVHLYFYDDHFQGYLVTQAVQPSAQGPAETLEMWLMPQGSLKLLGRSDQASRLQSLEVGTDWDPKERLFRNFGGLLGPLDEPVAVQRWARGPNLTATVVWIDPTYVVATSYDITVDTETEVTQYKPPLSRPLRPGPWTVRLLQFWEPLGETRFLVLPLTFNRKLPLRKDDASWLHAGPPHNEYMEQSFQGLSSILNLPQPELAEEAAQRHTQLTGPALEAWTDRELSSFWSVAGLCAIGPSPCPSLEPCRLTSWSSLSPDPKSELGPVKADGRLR
UniProt Q9NXF8: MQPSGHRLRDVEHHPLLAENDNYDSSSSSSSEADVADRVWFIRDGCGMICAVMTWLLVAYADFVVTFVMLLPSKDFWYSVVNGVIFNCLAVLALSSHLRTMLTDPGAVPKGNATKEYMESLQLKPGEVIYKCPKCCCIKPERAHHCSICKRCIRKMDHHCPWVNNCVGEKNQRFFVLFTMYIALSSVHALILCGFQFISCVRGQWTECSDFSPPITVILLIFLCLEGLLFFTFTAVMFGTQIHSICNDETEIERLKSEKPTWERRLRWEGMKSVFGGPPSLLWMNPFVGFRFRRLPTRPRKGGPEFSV
UniProt Q5T750: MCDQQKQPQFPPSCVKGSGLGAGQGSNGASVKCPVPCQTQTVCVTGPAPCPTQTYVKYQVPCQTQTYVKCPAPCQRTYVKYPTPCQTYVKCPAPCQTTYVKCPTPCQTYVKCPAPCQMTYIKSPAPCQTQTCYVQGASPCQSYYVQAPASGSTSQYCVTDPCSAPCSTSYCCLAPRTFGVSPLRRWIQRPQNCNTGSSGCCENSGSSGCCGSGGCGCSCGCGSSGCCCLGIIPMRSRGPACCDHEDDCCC
UniProt O96006: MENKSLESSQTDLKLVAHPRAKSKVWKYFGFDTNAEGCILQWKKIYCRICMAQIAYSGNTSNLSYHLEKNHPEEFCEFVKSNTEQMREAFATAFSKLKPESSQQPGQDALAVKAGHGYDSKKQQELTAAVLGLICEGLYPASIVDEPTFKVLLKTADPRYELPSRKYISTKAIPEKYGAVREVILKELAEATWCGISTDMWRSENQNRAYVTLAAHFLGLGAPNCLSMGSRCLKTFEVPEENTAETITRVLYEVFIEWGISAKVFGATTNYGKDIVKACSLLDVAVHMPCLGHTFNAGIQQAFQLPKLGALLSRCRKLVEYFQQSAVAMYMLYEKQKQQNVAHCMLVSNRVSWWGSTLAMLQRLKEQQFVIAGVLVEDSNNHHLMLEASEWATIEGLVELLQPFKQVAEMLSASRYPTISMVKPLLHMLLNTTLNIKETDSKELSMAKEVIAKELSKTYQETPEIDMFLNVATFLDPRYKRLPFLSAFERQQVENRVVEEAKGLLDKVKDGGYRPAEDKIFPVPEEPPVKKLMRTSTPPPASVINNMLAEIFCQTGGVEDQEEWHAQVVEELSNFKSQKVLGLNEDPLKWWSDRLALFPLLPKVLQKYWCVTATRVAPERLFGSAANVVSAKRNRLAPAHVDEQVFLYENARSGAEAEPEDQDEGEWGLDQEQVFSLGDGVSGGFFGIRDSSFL
UniProt Q68DK2: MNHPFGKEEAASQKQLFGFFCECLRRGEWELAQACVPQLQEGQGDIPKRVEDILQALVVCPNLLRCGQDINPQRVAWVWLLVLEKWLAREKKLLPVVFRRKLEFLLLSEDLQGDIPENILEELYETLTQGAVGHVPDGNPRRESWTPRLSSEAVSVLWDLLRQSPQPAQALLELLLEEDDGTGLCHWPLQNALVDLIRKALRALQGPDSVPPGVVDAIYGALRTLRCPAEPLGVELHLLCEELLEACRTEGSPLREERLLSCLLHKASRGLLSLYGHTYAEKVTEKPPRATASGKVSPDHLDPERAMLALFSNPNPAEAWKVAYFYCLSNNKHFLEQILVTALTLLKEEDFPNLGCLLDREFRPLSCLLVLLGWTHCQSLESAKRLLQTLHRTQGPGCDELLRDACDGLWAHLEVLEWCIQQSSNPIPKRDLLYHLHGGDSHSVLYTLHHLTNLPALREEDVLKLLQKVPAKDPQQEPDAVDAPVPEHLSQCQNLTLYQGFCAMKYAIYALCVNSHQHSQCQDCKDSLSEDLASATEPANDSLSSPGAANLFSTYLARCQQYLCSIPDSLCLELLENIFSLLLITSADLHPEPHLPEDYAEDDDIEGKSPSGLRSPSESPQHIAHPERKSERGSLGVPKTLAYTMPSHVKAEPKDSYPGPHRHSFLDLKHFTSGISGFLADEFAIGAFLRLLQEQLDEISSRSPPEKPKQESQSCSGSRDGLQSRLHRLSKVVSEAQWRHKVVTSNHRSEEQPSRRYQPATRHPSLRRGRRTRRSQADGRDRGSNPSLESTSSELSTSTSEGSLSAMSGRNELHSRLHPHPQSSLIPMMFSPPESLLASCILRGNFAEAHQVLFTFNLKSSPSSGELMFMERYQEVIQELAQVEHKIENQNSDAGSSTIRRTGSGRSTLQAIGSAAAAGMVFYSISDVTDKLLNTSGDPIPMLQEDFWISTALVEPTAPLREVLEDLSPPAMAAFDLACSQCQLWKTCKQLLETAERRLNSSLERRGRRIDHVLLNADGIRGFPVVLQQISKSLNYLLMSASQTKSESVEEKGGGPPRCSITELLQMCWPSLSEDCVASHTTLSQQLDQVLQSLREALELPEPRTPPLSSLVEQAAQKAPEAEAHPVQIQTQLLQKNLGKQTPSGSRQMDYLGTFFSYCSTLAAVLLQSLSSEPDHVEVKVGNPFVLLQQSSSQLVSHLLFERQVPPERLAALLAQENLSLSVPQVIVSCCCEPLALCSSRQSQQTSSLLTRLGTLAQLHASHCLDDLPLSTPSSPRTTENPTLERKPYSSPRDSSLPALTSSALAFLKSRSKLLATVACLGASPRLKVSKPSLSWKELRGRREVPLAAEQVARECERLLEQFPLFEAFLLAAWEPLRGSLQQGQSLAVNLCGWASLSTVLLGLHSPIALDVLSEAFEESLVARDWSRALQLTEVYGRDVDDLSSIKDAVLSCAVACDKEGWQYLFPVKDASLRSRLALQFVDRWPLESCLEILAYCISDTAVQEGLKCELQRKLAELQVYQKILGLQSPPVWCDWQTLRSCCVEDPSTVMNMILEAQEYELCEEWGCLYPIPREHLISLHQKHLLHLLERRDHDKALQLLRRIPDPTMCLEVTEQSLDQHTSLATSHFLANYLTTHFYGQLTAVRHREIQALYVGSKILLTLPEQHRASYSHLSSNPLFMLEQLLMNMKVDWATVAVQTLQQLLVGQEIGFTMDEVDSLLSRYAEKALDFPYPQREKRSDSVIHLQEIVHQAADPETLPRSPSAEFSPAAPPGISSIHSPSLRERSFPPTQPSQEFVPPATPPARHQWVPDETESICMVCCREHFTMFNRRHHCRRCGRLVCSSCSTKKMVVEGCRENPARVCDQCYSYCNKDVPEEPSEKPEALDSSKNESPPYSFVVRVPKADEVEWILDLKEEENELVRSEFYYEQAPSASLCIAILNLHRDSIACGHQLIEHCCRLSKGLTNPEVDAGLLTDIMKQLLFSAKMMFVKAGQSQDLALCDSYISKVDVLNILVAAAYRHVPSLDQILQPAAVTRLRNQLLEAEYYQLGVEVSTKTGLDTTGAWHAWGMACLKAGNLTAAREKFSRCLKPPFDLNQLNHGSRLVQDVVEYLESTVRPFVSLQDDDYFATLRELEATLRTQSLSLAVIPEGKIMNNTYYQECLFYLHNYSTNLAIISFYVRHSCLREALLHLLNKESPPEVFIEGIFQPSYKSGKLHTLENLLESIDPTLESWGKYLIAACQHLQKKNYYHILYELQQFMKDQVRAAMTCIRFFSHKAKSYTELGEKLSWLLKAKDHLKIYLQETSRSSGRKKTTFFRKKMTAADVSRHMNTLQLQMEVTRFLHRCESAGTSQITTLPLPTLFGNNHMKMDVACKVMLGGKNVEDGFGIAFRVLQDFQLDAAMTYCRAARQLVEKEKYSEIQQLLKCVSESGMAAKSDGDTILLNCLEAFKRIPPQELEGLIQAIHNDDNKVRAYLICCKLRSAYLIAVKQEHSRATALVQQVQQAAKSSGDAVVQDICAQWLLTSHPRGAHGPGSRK

The list shows a part of the results.

Compound in the assay: c1ccc([C@@H]2C[C@H]2NC2CCNCC2)cc1
Description: log2 fold change, soluble protein after heating vs DMSO (PISA); higher = thermal stabilisation; K562 cells, 10 uM, 30 min; active = over 0.2 and 3.5 SD of the protein, either way, in both replicates (recomputed). In outline: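 Soluble protein was quantified by TMTpro 16plex LC-MS/MS after channel sums were equalised. It was obtained as the supernatant after 21,000xg for 90 min from pooled aliquots of K562 cells (2×10^6 cells/mL, 10 μM compound, 30 min) heated for 3 min across 48°C-58°C and extracted in PBS with 0.5% NP-40 at 4°C. Thermal stability values are relative to control samples and come from duplicates. They are given as log2 fold changes.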
Consider YIPF2 (UniProt Q9BWQ6), for which the log2 fold change is inactive: -0.12.

For ZDHHC13 (UniProt Q8IUH4), the log2 fold change is inactive: -0.112.

Turning to XRCC2 (UniProt O43543), the log2 fold change was inactive: -0.144.

As for ZC3H7B (UniProt Q9UGR2), the log2 fold change is inactive: 0.139.

Turning to ZBTB14 (UniProt O43829), the log2 fold change is inactive: 0.013.

On to XIRP2 isoform 8 (UniProt A4UGR9), for which the log2 fold change was inactive: -0.01.

On to ZKSCAN4 (UniProt Q969J2), for which the log2 fold change was inactive: 0.101.

Take ZBTB24 (UniProt O43167): the log2 fold change is inactive: -0.027.

Turning to ZKSCAN3 (UniProt Q9BRR0), the log2 fold change was inactive: 0.082.

Regarding ZBTB10 (UniProt Q96DT7), the log2 fold change is inactive: 0.035.

XYLT2 (UniProt Q9H1B5): the log2 fold change was inactive: -0.197.

Turning to ZDHHC7 isoform 2 (UniProt Q9NXF8), the log2 fold change is inactive: 0.081.

ZNF22 (UniProt P17026): the log2 fold change was inactive: 0.06.

Consider ZDHHC18 (UniProt Q9NUE0), for which the log2 fold change is inactive: -0.006.

As to XRCC1 (UniProt P18887), the log2 fold change is inactive: 0.062.

On to XP32 (UniProt Q5T750), for which the log2 fold change is inactive: 0.224.

On to ZBED1 (UniProt O96006), for which the log2 fold change is inactive: -0.001.

Regarding ZFYVE26 (UniProt Q68DK2), the log2 fold change is inactive: -0.026.

For the target ZFPM2 (UniProt Q8WW38), the log2 fold change is inactive: 0.232.

ZMYND8 isoform 19 (UniProt Q9ULU4): the log2 fold change was inactive: 0.044.

For the target XPC (UniProt Q01831), the log2 fold change is inactive: -0.154.
